Data as given in the supplement of paper PMC10849652.
This is one part of the list.

Chains of the proteins cited; added tags and fusions are not shown. Lines headed by an entry give the natural chain unless they say otherwise; changes in a name come on top.
UniProt P19823: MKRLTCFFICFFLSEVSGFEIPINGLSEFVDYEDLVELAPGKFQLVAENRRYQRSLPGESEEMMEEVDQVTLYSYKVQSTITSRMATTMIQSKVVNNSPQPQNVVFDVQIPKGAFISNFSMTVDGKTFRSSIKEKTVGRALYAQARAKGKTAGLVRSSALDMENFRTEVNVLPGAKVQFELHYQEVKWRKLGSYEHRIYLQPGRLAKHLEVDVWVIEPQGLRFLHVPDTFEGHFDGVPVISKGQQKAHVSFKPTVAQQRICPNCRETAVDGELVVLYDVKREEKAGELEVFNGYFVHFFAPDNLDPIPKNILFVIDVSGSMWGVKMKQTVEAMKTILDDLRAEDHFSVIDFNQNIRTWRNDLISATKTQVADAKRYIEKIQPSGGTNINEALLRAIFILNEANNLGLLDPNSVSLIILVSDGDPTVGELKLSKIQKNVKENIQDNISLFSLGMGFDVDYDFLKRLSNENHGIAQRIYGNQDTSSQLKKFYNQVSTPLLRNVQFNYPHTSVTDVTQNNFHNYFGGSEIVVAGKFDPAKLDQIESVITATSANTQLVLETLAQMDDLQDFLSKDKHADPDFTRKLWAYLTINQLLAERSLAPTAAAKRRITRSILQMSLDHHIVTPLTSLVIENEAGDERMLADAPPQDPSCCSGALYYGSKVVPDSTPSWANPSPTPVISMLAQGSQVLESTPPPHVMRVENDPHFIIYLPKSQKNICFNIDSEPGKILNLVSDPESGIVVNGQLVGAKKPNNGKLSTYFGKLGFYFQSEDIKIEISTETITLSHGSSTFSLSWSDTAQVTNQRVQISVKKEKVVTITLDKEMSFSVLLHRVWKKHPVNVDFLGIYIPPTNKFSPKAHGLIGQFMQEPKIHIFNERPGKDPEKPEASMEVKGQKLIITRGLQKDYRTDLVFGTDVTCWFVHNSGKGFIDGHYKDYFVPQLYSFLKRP
UniProt Q15051: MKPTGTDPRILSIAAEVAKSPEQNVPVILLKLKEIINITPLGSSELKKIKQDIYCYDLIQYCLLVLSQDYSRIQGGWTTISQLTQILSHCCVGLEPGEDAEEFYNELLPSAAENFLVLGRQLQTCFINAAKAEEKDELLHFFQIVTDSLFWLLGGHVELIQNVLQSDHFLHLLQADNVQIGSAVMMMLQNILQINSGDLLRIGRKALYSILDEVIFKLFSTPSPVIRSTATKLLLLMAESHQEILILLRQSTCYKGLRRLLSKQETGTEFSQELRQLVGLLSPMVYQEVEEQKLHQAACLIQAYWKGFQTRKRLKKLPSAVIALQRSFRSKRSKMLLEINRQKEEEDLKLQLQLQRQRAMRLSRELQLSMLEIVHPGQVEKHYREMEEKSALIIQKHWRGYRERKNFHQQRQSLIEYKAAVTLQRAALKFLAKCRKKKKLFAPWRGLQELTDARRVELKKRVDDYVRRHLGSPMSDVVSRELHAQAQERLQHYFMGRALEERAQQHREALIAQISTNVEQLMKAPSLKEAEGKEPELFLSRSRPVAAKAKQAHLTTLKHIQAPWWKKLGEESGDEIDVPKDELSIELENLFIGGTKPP
UniProt Q9Y2K7: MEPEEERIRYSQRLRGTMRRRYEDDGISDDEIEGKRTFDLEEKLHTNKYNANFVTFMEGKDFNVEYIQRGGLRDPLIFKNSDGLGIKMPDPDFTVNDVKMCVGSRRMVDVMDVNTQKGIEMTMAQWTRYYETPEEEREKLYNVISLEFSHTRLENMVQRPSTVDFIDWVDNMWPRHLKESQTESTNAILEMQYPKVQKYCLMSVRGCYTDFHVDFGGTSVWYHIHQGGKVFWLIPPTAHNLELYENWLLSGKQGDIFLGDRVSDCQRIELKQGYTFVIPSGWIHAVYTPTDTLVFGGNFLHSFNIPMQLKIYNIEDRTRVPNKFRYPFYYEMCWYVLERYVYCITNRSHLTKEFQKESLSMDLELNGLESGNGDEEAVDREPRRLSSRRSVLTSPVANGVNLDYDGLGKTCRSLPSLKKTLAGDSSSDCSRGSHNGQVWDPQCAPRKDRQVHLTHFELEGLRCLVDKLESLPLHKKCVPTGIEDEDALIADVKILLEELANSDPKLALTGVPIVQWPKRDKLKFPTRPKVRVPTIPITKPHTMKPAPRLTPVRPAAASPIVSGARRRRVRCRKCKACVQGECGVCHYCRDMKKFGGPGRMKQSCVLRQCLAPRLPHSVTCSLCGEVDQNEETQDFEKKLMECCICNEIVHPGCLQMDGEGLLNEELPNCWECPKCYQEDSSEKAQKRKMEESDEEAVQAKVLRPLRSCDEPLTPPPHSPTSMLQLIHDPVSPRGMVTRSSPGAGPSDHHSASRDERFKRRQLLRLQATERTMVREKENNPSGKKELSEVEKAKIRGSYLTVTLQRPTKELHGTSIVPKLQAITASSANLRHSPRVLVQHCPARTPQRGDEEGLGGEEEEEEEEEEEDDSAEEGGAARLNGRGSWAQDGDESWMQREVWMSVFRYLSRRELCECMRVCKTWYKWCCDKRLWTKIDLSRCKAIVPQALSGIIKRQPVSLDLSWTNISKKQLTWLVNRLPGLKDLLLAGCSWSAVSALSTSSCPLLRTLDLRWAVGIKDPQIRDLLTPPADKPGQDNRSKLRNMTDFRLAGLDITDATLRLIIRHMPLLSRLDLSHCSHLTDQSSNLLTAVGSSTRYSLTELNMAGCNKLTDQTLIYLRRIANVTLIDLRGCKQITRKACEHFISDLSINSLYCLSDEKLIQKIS
UniProt O43736: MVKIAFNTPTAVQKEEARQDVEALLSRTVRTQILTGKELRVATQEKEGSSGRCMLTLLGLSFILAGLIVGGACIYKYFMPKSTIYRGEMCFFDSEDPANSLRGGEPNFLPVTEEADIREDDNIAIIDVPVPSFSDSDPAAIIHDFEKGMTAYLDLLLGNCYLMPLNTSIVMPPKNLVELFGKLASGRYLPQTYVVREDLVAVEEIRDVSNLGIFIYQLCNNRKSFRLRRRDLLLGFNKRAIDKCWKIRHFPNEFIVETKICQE
UniProt Q8WVZ9: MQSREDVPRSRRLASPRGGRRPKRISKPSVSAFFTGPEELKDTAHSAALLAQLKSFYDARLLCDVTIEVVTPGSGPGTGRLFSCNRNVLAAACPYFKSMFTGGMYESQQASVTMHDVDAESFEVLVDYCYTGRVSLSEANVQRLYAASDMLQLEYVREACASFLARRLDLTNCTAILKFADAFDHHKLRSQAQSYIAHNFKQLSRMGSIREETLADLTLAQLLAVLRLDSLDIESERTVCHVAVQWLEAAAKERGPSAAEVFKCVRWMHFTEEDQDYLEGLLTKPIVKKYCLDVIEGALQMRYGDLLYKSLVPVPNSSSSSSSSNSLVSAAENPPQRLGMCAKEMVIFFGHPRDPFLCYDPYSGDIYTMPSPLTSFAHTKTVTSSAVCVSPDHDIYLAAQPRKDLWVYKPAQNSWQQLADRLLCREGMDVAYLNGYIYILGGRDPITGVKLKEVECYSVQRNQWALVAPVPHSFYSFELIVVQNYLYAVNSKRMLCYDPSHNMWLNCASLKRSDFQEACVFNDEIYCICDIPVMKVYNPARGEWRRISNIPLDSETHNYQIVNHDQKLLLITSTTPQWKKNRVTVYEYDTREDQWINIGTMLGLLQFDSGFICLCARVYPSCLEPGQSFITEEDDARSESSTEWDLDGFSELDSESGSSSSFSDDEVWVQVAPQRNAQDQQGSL
UniProt Q9Y573: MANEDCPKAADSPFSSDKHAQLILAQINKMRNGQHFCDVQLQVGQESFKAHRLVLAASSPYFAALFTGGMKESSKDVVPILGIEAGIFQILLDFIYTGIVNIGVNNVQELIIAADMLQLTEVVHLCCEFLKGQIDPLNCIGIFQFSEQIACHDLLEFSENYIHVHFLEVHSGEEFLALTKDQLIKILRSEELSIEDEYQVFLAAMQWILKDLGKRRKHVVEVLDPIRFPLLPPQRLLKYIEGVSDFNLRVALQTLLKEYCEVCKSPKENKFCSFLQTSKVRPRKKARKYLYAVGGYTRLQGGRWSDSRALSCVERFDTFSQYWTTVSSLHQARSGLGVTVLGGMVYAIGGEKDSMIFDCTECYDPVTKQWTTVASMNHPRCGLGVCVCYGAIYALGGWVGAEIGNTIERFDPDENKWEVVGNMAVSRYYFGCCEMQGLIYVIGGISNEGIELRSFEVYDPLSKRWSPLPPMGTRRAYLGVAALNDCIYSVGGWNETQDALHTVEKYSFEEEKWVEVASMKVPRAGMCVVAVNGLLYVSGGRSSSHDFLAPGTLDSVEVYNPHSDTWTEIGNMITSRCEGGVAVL
UniProt P24390: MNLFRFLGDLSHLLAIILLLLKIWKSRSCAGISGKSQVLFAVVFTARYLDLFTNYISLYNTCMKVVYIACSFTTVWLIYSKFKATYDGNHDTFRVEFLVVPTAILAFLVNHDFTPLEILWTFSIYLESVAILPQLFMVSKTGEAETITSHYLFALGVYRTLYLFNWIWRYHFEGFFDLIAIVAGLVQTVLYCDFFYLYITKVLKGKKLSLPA
UniProt O00180: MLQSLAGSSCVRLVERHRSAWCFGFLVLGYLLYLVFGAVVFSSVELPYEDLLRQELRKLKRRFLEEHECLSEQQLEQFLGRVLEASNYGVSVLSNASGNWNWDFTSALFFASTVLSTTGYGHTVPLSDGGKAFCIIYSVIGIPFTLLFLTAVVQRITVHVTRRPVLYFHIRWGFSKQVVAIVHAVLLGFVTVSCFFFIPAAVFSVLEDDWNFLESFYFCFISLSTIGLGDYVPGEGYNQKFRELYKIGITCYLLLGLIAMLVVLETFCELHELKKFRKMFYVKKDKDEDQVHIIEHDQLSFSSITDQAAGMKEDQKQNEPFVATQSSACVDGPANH
UniProt Q8NAX2: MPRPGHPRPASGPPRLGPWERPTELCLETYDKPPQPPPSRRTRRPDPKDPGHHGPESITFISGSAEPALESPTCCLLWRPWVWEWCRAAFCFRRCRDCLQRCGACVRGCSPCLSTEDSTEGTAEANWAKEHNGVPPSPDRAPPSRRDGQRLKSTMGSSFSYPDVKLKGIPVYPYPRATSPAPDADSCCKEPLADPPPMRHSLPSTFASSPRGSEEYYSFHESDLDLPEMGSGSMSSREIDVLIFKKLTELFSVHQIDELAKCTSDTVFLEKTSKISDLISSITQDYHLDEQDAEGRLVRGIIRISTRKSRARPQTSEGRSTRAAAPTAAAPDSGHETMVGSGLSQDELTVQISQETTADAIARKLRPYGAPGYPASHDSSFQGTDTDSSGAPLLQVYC
UniProt P52333: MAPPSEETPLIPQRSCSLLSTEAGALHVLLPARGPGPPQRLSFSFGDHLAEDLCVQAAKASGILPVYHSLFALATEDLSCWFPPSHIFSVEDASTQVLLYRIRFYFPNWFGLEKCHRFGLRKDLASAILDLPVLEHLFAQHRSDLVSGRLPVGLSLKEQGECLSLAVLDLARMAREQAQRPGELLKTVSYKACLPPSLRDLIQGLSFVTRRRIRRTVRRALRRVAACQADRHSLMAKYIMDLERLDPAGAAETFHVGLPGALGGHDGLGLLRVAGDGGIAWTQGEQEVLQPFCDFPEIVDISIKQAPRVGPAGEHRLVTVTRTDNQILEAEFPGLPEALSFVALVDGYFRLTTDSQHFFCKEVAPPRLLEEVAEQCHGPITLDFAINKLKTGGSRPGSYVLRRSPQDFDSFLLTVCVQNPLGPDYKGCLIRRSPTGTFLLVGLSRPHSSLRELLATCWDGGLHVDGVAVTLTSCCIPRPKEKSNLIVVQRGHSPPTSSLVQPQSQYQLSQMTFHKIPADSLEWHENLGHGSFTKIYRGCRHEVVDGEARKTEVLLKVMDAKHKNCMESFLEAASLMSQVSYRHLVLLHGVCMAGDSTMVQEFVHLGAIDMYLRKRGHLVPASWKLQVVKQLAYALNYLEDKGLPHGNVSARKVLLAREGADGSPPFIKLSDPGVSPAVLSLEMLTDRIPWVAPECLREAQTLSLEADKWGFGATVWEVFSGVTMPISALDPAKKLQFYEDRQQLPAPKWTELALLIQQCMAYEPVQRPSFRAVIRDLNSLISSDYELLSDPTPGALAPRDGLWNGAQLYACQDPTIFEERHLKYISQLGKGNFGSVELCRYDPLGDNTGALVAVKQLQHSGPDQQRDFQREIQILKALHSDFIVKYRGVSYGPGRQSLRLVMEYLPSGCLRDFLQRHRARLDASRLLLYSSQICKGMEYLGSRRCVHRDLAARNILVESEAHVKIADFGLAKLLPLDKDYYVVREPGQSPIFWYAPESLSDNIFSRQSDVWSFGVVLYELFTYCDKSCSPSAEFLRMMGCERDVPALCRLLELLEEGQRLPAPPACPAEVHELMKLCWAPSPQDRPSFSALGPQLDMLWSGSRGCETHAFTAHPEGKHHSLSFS
UniProt O43731: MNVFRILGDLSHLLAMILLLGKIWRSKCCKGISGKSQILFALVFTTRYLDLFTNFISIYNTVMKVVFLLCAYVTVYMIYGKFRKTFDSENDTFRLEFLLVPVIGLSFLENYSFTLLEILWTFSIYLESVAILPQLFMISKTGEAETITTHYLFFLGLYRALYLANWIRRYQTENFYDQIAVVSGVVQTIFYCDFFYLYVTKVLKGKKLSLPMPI

Legend:
Experiment in all cases: log2 fold change, soluble protein after heating vs DMSO (PISA); higher = thermal stabilisation; K562 lysate, 10 uM; active = over 0.2 and 3.5 SD of the protein, either way, in both replicates (recomputed)
vemurafenib = compound: CCCS(=O)(=O)Nc1ccc(F)c(C(=O)c2c[nH]c3ncc(-c4ccc(Cl)cc4)cc23)c1F [vemurafenib]
Method in brief: (§1)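 Log-two fold change in thermal stability relative to solvent controls is reported from duplicates. For each sample, crude K562 extract from dounce-homogenised pellets in PBS pH 7.4 with 1 mM MgCl2, at 1 mg/mL protein, was treated with 10 μM compound for 30 min. Aliquots heated for 3 min across 48°C-58°C were pooled, brought to 0.5% NP-40 at 4°C and cleared at 21,000xg for 90 min. The supernatant was quantified by TMTpro 16plex LC-MS/MS with channel sums equalised.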

[1] = compound: CCCS(=O)(=O)Nc1ccc(F)c(C(=O)c2c[nH]c3ncc(Cl)cc23)c1F
Method in brief: as §1

barasertib = compound: CCN(CCCOc1ccc2c(Nc3cc(CC(=O)Nc4cccc(F)c4)[nH]n3)ncnc2c1)CCOP(=O)(O)O [barasertib]
Method in brief: as §1

[2] = compound: CC[C@@H]1C(=O)N(C)c2cnc(Nc3ccc(C(=O)NC4CCN(C)CC4)cc3OC)nc2N1C1CCCC1
Method in brief: as §1

volasertib = compound: CC[C@@H]1C(=O)N(C)c2cnc(Nc3ccc(C(=O)N[C@H]4CC[C@H](N5CCN(CC6CC6)CC5)CC4)cc3OC)nc2N1C(C)C [volasertib]
Method in brief: as §1

[3] = compound: CCn1c(C(=O)N(C2CC2)C2CC2)cc2c3c(ncn3C)c(Nc3cc(C)n(C)n3)nc21
Method in brief: as §1

[4] = compound: CCn1cc(-c2ccnc3[nH]c(-c4cccc(CN(C)C)c4)cc23)c(-c2ccc(NC(=O)N(C)C)cc2)n1
Method in brief: as §1

[5] = compound: CN1CCC(CNc2ccc3ncc(-c4cccc(OC(F)(F)F)c4)n3n2)CC1
Method in brief: as §1

sotrastaurin = compound: CN1CCN(c2nc(C3=C(c4c[nH]c5ccccc45)C(=O)NC3=O)c3ccccc3n2)CC1 [sotrastaurin]
Method in brief: as §1

alvocidib = compound: CN1CC[C@H](c2c(O)cc(O)c3c(=O)cc(-c4ccccc4Cl)oc23)[C@H](O)C1 [alvocidib]
Method in brief: as §1

Tubastatin A = compound: CN1CCc2c(c3ccccc3n2Cc2ccc(C(=O)NO)cc2)C1 [Tubastatin A]
Method in brief: as §1

defactinib = compound: CNC(=O)c1ccc(Nc2ncc(C(F)(F)F)c(NCc3nccnc3N(C)S(C)(=O)=O)n2)cc1 [defactinib]
Method in brief: as §1

encorafenib = compound: COC(=O)N[C@@H](C)CNc1nccc(-c2cn(C(C)C)nc2-c2cc(Cl)cc(NS(C)(=O)=O)c2F)n1 [encorafenib]
Method in brief: as §1

[6] = compound: COC(=O)[C@H](CCSC)NC(=O)C1=C(C=C(C=C1)NC[C@H](CS)N)C2=CC=CC=C2
Method in brief: as §1

alisertib = compound: COc1cc(Nc2ncc3c(n2)-c2ccc(Cl)cc2C(c2c(F)cccc2OC)=NC3)ccc1C(=O)O [alisertib]
Method in brief: as §1

[7] = compound: COc1cc2nc(-c3cc(F)ccc3O)nc(N[C@@H]3CNC[C@H]3C(C)(C)O)c2cc1OC
Method in brief: as §1

gefitinib = compound: COc1cc2ncnc(Nc3ccc(F)c(Cl)c3)c2cc1OCCCN1CCOCC1 [gefitinib]
Method in brief: as §1

saracatinib = compound: CN1CCN(CCOc2cc(OC3CCOCC3)c3c(Nc4c(Cl)ccc5c4OCO5)ncnc3c2)CC1 [saracatinib]
Method in brief: as §1

[8] = compound: CNC(=O)C1=CC=CC=C1NC2=NC(=NC=C2Cl)NC3=C(C=C(C=C3)N4CCOCC4)OC
Method in brief: as §1

[9] = compound: CNc1nc(-c2ccc3c(N)n[nH]c3c2)cc(N2C[C@@H](C(=O)NC3CCCCC3)CC[C@H]2C)n1
Method in brief: as §1

Measured: log2 fold change

ITIH2 (UniProt P19823)
inactive: vemurafenib 0.038 | [1] 0.049 | barasertib -0.016 | [2] 0.079 | volasertib 0.026 | [3] -0.106 | [4] -0.011 | [5] 0.051 | sotrastaurin 0.046 | alvocidib -0.002 | Tubastatin A -0.02 | defactinib -0.028 | encorafenib 0.04 | [6] -0.031 | alisertib -0.04 | [7] 0.048 | gefitinib 0.06

IQCB1 (UniProt Q15051)
inactive: vemurafenib -0.073 | barasertib 0.066 | [2] -0.068 | [4] -0.085 | [5] -0.145 | saracatinib -0.175 | alvocidib 0.09 | [8] -0.038 | defactinib 0.084 | [9] -0.001 | encorafenib -0.21 | [6] 0.022 | alisertib 0.089 | gefitinib 0.067

KDM2A (UniProt Q9Y2K7)
inactive: vemurafenib 0.069 | barasertib 0.154 | [2] 0 | [3] 0.151 | [4] -0.102 | [5] -0.034 | saracatinib -0.032 | alvocidib -0.023 | Tubastatin A -0.109 | [8] 0.023 | defactinib 0.046 | [9] 0.041 | encorafenib 0.008 | [6] 0.083 | alisertib -0.016 | gefitinib 0.009

JAK1 (UniProt P23458)
inactive: vemurafenib 0.044 | barasertib 0.085 | [2] 0.079 | sotrastaurin 0.039 | defactinib -0.047 | encorafenib 0.074 | [6] -0.056

ITGA2B (UniProt P08514)
inactive: vemurafenib 0.011 | [1] -0.08 | volasertib 0.22 | [3] 0.021 | [4] -0.051 | [5] -0.013 | sotrastaurin -0.166 | alvocidib -0.044 | Tubastatin A -0.016 | [8] -0.051 | defactinib -0.2 | alisertib -0.122 | [7] 0.054 | gefitinib 0.025

KCTD21 (UniProt Q4G0X4)
inactive: vemurafenib -0.02 | barasertib 0.197 | [2] -0.087 | [3] -0.134 | sotrastaurin -0.032 | Tubastatin A -0.163 | [8] -0.068 | defactinib 0.046 | encorafenib -0.011 | [6] 0.088 | alisertib -0.157 | gefitinib 0

ITM2A (UniProt O43736)
inactive: vemurafenib -0.051 | [1] 0.029 | barasertib 0.18 | [2] 0.102 | volasertib -0.005 | [3] -0.027 | [4] 0.091 | [5] -0.045 | saracatinib -0.006 | alvocidib 0.033 | Tubastatin A 0.084 | [8] 0.005 | defactinib 0.017 | [9] -0.052 | encorafenib -0.013 | [6] -0.01 | alisertib 0.131 | [7] -0.004 | gefitinib 0

KBTBD7 (UniProt Q8WVZ9)
inactive: vemurafenib 0.043 | [1] -0.081 | barasertib 0.064 | [2] -0.012 | volasertib 0.096 | [3] 0.031 | saracatinib 0.051 | sotrastaurin 0.091 | Tubastatin A 0.053 | [8] -0.084 | defactinib 0.162 | [9] -0.098 | encorafenib -0.061 | [6] 0.219 | [7] 0.036

Quoted from above (five entries):
IQCB1 (UniProt Q15051)
inactive: vemurafenib -0.073 | barasertib 0.066 | [2] -0.068 | [4] -0.085 | [5] -0.145 | saracatinib -0.175 | alvocidib 0.09 | [8] -0.038 | defactinib 0.084 | [9] -0.001 | encorafenib -0.21 | [6] 0.022 | alisertib 0.089 | gefitinib 0.067

KDM2A (UniProt Q9Y2K7)
inactive: vemurafenib 0.069 | barasertib 0.154 | [2] 0 | [3] 0.151 | [4] -0.102 | [5] -0.034 | saracatinib -0.032 | alvocidib -0.023 | Tubastatin A -0.109 | [8] 0.023 | defactinib 0.046 | [9] 0.041 | encorafenib 0.008 | [6] 0.083 | alisertib -0.016 | gefitinib 0.009

JAK1 (UniProt P23458)
inactive: vemurafenib 0.044 | barasertib 0.085 | [2] 0.079 | sotrastaurin 0.039 | defactinib -0.047 | encorafenib 0.074 | [6] -0.056

ITGA2B (UniProt P08514)
inactive: vemurafenib 0.011 | [1] -0.08 | volasertib 0.22 | [3] 0.021 | [4] -0.051 | [5] -0.013 | sotrastaurin -0.166 | alvocidib -0.044 | Tubastatin A -0.016 | [8] -0.051 | defactinib -0.2 | alisertib -0.122 | [7] 0.054 | gefitinib 0.025

KCTD21 (UniProt Q4G0X4)
inactive: vemurafenib -0.02 | barasertib 0.197 | [2] -0.087 | [3] -0.134 | sotrastaurin -0.032 | Tubastatin A -0.163 | [8] -0.068 | defactinib 0.046 | encorafenib -0.011 | [6] 0.088 | alisertib -0.157 | gefitinib 0

Additional records follow:

IPP (UniProt Q9Y573)
inactive: vemurafenib -0.102 | [1] 0.056 | [2] 0.169 | volasertib -0.162 | [3] 0.006 | [4] 0.057 | [5] -0.014 | saracatinib -0.035 | alvocidib 0.001 | Tubastatin A -0.075 | [8] -0.07 | defactinib 0.016 | [9] 0.029 | encorafenib -0.138 | [6] -0.171 | [7] 0.06

KDELR1 (UniProt P24390)
inactive: vemurafenib 0.038 | [1] -0.014 | barasertib -0.072 | [2] 0.09 | volasertib 0.135 | [3] -0.024 | [4] -0.203 | [5] 0.042 | saracatinib 0.047 | sotrastaurin 0.084 | alvocidib -0.098 | Tubastatin A -0.003 | [8] 0.036 | defactinib 0.061 | [9] 0.082 | encorafenib 0.034 | [6] 0.065 | [7] 0.115

ITGB1BP1 (UniProt O14713)
inactive: vemurafenib -0.057 | [1] 0.107 | barasertib 0.192 | [2] -0.077 | volasertib -0.108 | [3] 0.01 | [4] 0.108 | [5] 0.078 | saracatinib 0.018 | alvocidib -0.02 | Tubastatin A 0.09 | [8] -0.054 | defactinib 0.016 | [9] 0.005 | encorafenib -0.014 | [6] 0.218 | alisertib -0.005 | [7] -0.001 | gefitinib 0.096

KCNAB2 (UniProt Q13303)
inactive: vemurafenib 0.036 | [1] 0.018 | barasertib -0.022 | [2] -0.07 | volasertib -0.001 | [3] 0.007 | [4] -0.101 | [5] 0.067 | saracatinib -0.01 | sotrastaurin 0.042 | alvocidib -0.013 | Tubastatin A -0.06 | [8] -0.021 | defactinib -0.038 | [9] 0.023 | encorafenib 0.062 | [6] -0.155 | alisertib -0.001 | [7] -0.021 | gefitinib 0.019

KCNK1 (UniProt O00180)
inactive: vemurafenib -0.094 | [1] -0.008 | barasertib 0.082 | [2] 0.149 | volasertib -0.038 | [4] 0.133 | [5] 0.027 | saracatinib -0.258 | alvocidib -0.061 | [8] -0.22 | defactinib 0.246 | [9] 0.282 | encorafenib -0.005 | [6] -0.015 | alisertib -0.586 | [7] 0.099 | gefitinib 0.475

KDF1 (UniProt Q8NAX2)
inactive: vemurafenib 0.063 | [1] -0.025 | barasertib 0.037 | volasertib -0.013 | sotrastaurin -0.021 | [8] 0.17 | defactinib 0.111 | alisertib 0.131 | [7] 0.029 | gefitinib -0.099

ITSN1 isoform 8 (UniProt Q15811)
inactive: vemurafenib -0.002 | [1] -0.012 | barasertib 0.013 | [2] 0.105 | volasertib 0.035 | [3] 0.064 | [4] 0.037 | [5] -0.044 | saracatinib 0.013 | sotrastaurin -0.021 | alvocidib 0.019 | Tubastatin A 0.006 | [8] -0.027 | defactinib 0.01 | [9] 0.071 | encorafenib -0.003 | [6] 0.001 | alisertib -0.045 | [7] 0.032 | gefitinib -0.026

JAK3 (UniProt P52333)
inactive: vemurafenib -0.127 | [1] 0.014 | barasertib 0.064 | volasertib -0.062 | [4] 0.524 | [5] -0.488 | sotrastaurin 0.014 | alvocidib 0.254 | defactinib 0.06 | [7] -0.041

KDELR3 (UniProt O43731)
inactive: vemurafenib -0.114 | [1] 0.068 | [2] -0.187 | volasertib -0.035 | [3] -0.043 | [4] -0.12 | [5] 0.204 | saracatinib 0.017 | sotrastaurin -0.088 | alvocidib -0.065 | Tubastatin A 0.015 | [8] 0.143 | defactinib -0.234 | [9] 0.085 | encorafenib 0.227 | [6] 0.107 | alisertib -0.014 | [7] -0.034 | gefitinib 0.045

IST1 isoform 2 (UniProt P53990)
inactive: vemurafenib -0.125 | [1] 0.29 | [2] 0.156 | volasertib 0.113 | [3] 0.009 | saracatinib 0.078 | sotrastaurin -0.012 | Tubastatin A -0.025 | [8] 0.018 | defactinib 0.144 | [9] 0.085 | encorafenib -0.042 | [6] 0.035 | alisertib -0.217 | [7] -0.102 | gefitinib 0.02

ITIH4 (UniProt Q14624)
inactive: vemurafenib -0.035 | barasertib 0.04 | [2] 0.197 | [3] -0.09 | [4] -0.007 | [5] 0.076 | saracatinib 0.11 | alvocidib 0.028 | Tubastatin A 0.1 | [8] -0.024 | defactinib 0.057 | [9] 0.204 | encorafenib 0.004 | [6] -0.023

ITPKC (UniProt Q96DU7)
inactive: vemurafenib -0.06 | barasertib 0.007 | [2] -0.025 | [3] 0.158 | [4] 0.02 | [5] 0.211 | saracatinib 0.059 | sotrastaurin -0.014 | alvocidib -0.165 | Tubastatin A -0.173 | [8] -0.014 | defactinib 0.098 | [9] -0.103 | encorafenib 0.032 | [6] 0.112 | alisertib -0.025 | gefitinib 0.085
